Record: PubChem BioAssay AID504804 (Drosophila RNAi Screening Center, 2011)
In all, the deposit lists about 19,000 reagents; shown is a random part of those that have a named target and a result. Over the whole deposit, 47 (0.25%) got an active call. 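Signals are raw, not normalised; exact z-scores behind calls not deposited; actives needed confirmation, so some wells reaching 2 SD are inactive.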 A number with no mark means an inactive call.

Purpose: 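dsRNAs that improve Kc cell survival under doxorubicin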 (primary screen)
Cells: Drosophila Kc cells
Reagents: long dsRNA against Drosophila genes, 0.5 µg dsRNA per well
Duration: 96 h (48 h knock-down, then 48 h drug)
Treatment: doxorubicin 5 µg/ml for 48 h, added 48 h after dsRNA
Detection: 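Luminescent ATP counts per replicate, not normalised, reflecting viable cells after 48 h dsRNA knock-down followed by 48 h of 5 µg/ml doxorubicin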
Direction: raw ATP luminescence: higher = more viable cells, protection from doxorubicin
Active means: 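z-score of 2 or more over plate mean in both duplicates, retained only when retests and separate dsRNAs confirm the protection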

Target gene | dsRNA | raw ATP luminescence, replicate 1 | raw ATP luminescence, replicate 2
CG10413 (GeneID 35111) | DRSC02052 | 42770 | 53533
Trim9 (GeneID 34453) | DRSC02242 | 36740 | 65317
CG31098 (GeneID 43057) | DRSC14259 | 59980 | 49740
CG15657 (GeneID 37408) | DRSC04248 | 31203 | 36713
dpn (GeneID 35800) | DRSC07605 | 50843 | 69150
CG10086 (GeneID 40920) | DRSC14183 | 61920 | 62487
CG17211 (GeneID 34639) | DRSC02587 | 65247 | 71883
Hey (GeneID 35764) | DRSC07440 | 11380 | 17503
CG14852 (GeneID 41765) | DRSC14976 | 53280 | 50350
Rubicon (GeneID 31803) | DRSC17889 | 53450 | 53970
CG9705 (GeneID 39875) | DRSC11094 | 21400 | 19783
CG1440 (GeneID 31776) | DRSC17915 | 42530 | 49850
spas (GeneID 42846) | DRSC15929 | 43650 | 75290
CG7567 (GeneID 43479) | DRSC16258 | 53750 | 59730
CG31781 (retired record) (GeneID 35023) | DRSC02431 | 1.02e5 | 65000
CG31781 (retired record) (GeneID 35023) | DRSC02432 | 78093 | 1.05e5
MED30 (GeneID 38078) | DRSC08516 | 46163 | 57840
SIFaR (GeneID 42530) | DRSC13467 | 2.69e5 | 2.43e5
SIFaR (GeneID 42530) | DRSC14266 | 42030 | 37540
CG4404 (GeneID 32241) | DRSC19897 | 3.35e5 | 3.45e5
Ir87a (GeneID 41654) | DRSC14836 | 88790 | 99610
CG17163 (GeneID 3354988) | DRSC20901 | 3.36e5 | 3.17e5
CG32767 (GeneID 31430) | DRSC18386 | 51320 | 46180
St1 (GeneID 37742) | DRSC04504 | 66080 | 48273
CG14384 (GeneID 41588) | DRSC14842 | 1.29e5 | 76330
Atg8a (GeneID 32001) | DRSC18024 | 3.54e5 | 3.20e5
Cp19 (GeneID 39000) | DRSC11121 | 88313 | 82067
CG34396 (GeneID 37398) | DRSC04245 | 53553 | 32527
CG34396 (GeneID 37398) | DRSC04246 | 40000 | 40140
CG13101 (GeneID 34221) | DRSC02201 | 74550 | 48590
emc (GeneID 38091) | DRSC08715 | 82783 | 78147
CG42539 (retired record) (GeneID 8674027) | DRSC13691 | 2.03e5 | 2.26e5
RapGAP1 (GeneID 34032) | DRSC02293 | 25233 | 25080
RapGAP1 (GeneID 34032) | DRSC02294 | 23433 | 22887
RapGAP1 (GeneID 34032) | DRSC03406 | 97193 | 62187
CG6479 (GeneID 39930) | DRSC10647 | 32157 | 20057
Tsp29Fb (GeneID 34212) | DRSC03233 | 40697 | 66710
CG2889 (GeneID 31977) | DRSC18236 | 3.06e5 | 3.05e5
Fancl (GeneID 41231) | DRSC14550 | 63117 | 59643
CG1690 (GeneID 36004) | DRSC06636 | 48977 | 84380
PPP1R15 (GeneID 37820) | DRSC04422 | 58617 | 39733
CG32459 (GeneID 40502) | DRSC11852 | 59313 | 57683
Nipped-A (GeneID 35483) | DRSC04882 | 73877 | 64323
Nipped-A (GeneID 35483) | DRSC04883 | 31537 | 51317
Nipped-A (GeneID 35483) | DRSC04884 | 63127 | 53057
Npc1a (GeneID 34358) | DRSC03378 | 43043 | 75307
CG5515 (GeneID 42875) | DRSC15825 | 35397 | 50637
CG30020 (GeneID 36156) | DRSC06252 | 1.57e5 | 1.64e5
CG30020 (GeneID 36156) | DRSC06730 | 48950 | 94333
Frl (GeneID 39561) | DRSC09300 | 66307 | 77047
Frl (GeneID 39561) | DRSC10027 | 36387 | 27277
Frl (GeneID 39561) | DRSC10716 | 35760 | 35560
CG34183 (GeneID 5740752) | DRSC01099 | 3.46e5 | 3.37e5
CG9673 (GeneID 32649) | DRSC20202 | 2.99e5 | 2.77e5
PIG-T (GeneID 31772) | DRSC17774 | 56960 | 36500
CG33648 (GeneID 3772188) | DRSC01387 | 3.43e5 | 2.64e5
Prosbeta6 (GeneID 39855) | DRSC11256 | 27377 | 23003
CG5895 (GeneID 39752) | DRSC10554 | 69347 | 53987
CG32815 (GeneID 318224) | DRSC18177 | 72880 | 52470
Mnn1 (GeneID 33991) | DRSC03368 | 19823 | 25143
CG15577 (GeneID 50378) | DRSC18065 | 46930 | 43910
RhoGAP68F (GeneID 39385) | DRSC10717 | 45953 | 44137
CG9568 (GeneID 34227) | DRSC03265 | 43520 | 80227
Ir41a (GeneID 2768714) | DRSC04730 | 85407 | 88123
Ir41a (GeneID 2768714) | DRSC04875 | 43280 | 48527
l(1)sc (GeneID 30983) | DRSC18789 | 42370 | 50000
CG18269 (GeneID 33785) | DRSC02660 | 23423 | 35577
Sf3b2 (GeneID 33514) | DRSC00619 | 31937 | 25060
Ccn (GeneID 39972) | DRSC09504 | 84247 | 88017
Ccn (GeneID 39972) | DRSC09506 | 83183 | 68863
Ccn (GeneID 39972) | DRSC10062 | 24557 | 23597
Ccn (GeneID 39972) | DRSC10063 | 57480 | 46753
Cad96Cb (GeneID 43033) | DRSC14243 | 95100 | 82600
Cad96Cb (GeneID 43033) | DRSC14665 | 68210 | 66680
tank (GeneID 33684) | DRSC00461 | 21560 | 30557
CG18545 (GeneID 41264) | DRSC15343 | 57453 | 57127
CG18530 (GeneID 59241) | DRSC15341 | 47710 | 58880
AsnS (GeneID 2768965) | DRSC11468 | 66083 | 77297
CG15343 (GeneID 31765) | DRSC18028 | 46850 | 42900
be (GeneID 32430) | DRSC19944 | 4.26e5 | 3.68e5
be (GeneID 32430) | DRSC19945 | 4.66e5 | 3.32e5
lectin-29Ca (GeneID 53547) | DRSC02635 | 35320 | 73923
CG15046 (GeneID 32833) | DRSC19622 | 3.79e5 | 3.30e5
yip2 (GeneID 34313) | DRSC03640 | 53203 | 58723

Entries above whose target name begins with T or t (3):
Target gene | dsRNA | raw ATP luminescence, replicate 1 | raw ATP luminescence, replicate 2
Trim9 (GeneID 34453) | DRSC02242 | 36740 | 65317
Tsp29Fb (GeneID 34212) | DRSC03233 | 40697 | 66710
tank (GeneID 33684) | DRSC00461 | 21560 | 30557
